Measurements from paper PMC12234153.
These are yes or no findings as the source states them, for the method shown. Binding seen in cells or lysates may run through a third protein. Some binding calls cover weakened binding; strength is not graded here.

Amino acid sequences for entries named in this document (tags omitted). A change or cut given only in a name is not applied to a line headed by its entry.
UniProt P42227: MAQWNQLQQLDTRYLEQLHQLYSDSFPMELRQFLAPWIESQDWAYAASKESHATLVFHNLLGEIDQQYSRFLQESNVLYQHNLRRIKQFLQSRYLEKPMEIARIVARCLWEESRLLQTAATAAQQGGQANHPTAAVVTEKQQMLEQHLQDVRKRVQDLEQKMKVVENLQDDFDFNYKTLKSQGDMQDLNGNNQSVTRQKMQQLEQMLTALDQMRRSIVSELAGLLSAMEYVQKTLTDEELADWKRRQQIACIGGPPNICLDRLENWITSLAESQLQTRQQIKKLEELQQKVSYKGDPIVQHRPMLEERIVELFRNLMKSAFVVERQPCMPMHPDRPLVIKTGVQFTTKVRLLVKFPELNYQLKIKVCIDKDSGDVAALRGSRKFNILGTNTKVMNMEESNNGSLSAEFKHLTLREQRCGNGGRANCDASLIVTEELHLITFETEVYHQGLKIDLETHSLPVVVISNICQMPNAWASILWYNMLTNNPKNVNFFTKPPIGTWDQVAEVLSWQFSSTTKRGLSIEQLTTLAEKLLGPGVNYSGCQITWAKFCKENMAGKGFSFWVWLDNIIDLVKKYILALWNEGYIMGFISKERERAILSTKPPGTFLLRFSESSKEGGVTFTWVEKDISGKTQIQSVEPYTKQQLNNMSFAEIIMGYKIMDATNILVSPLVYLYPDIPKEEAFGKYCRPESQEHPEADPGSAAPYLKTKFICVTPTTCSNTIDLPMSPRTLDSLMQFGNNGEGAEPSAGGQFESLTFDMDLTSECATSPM
UniProt Q13485: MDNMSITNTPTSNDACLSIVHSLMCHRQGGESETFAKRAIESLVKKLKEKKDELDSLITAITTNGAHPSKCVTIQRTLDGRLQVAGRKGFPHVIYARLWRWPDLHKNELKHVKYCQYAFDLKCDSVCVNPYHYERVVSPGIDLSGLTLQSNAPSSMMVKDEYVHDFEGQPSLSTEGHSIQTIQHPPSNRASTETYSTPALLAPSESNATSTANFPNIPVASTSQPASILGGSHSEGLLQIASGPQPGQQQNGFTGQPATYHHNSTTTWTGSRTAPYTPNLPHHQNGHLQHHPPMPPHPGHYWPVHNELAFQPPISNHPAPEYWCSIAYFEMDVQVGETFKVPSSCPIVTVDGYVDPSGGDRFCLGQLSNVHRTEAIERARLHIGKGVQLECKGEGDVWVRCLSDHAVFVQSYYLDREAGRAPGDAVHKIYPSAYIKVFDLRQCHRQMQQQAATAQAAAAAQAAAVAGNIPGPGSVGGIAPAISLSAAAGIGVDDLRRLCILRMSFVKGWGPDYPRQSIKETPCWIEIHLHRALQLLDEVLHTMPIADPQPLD
UniProt Q15796: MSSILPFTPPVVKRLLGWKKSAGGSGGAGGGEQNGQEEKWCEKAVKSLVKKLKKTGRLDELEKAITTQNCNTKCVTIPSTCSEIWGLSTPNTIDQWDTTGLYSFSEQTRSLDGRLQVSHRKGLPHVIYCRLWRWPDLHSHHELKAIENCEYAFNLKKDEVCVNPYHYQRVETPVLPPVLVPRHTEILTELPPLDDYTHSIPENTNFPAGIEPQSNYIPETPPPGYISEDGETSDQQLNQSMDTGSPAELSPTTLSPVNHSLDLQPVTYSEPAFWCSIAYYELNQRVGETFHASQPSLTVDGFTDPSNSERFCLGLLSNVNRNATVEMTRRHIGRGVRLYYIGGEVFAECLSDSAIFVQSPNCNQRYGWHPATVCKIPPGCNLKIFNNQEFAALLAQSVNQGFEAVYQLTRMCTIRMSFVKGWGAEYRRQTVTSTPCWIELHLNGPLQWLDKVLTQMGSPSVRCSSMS
UniProt Q62432: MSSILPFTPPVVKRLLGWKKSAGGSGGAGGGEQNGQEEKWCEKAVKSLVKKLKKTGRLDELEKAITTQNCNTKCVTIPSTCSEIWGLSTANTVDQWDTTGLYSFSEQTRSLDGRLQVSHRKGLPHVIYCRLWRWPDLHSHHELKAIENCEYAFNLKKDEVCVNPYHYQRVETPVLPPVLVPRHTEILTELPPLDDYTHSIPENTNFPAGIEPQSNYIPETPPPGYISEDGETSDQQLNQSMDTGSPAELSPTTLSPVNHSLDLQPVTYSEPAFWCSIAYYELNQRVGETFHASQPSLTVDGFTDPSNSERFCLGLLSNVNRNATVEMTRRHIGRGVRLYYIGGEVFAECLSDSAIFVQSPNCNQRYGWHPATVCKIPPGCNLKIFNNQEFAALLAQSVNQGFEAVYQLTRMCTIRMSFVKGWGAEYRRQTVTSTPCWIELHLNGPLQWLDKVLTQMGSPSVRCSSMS
UniProt P40763: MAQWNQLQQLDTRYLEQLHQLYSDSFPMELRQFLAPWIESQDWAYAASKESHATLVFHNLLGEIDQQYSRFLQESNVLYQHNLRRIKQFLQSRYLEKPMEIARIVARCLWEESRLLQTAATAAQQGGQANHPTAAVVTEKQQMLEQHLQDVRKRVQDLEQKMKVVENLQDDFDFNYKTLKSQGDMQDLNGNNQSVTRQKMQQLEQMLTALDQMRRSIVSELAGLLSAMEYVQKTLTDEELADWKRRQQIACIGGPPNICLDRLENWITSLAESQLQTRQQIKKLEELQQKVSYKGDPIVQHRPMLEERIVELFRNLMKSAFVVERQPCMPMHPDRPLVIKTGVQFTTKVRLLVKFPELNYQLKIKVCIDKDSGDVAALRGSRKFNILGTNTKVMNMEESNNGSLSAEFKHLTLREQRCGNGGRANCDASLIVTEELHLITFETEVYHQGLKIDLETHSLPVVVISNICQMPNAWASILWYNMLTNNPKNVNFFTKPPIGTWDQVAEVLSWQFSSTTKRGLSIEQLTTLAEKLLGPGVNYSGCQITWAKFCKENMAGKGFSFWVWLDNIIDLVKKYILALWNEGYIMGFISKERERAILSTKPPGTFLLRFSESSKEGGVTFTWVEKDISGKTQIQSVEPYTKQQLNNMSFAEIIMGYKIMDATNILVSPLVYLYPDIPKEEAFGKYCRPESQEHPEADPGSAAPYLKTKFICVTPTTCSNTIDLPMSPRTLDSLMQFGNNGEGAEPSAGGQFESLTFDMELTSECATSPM

Columns and labels:
[1] = biological target: STAT3-FLAG (wild type) (mouse) (UniProt P42227); assay: co-IP; DHHC7 KO HEK293T cells transfected with WT or catalytically inactive (MUT) DHHC7 and the indicated SMAD2 and STAT3 constructs; anti-FLAG pull-down of STAT3 (Fig. 5C) or SMAD2 (Fig. 5D), blot with anti-HA
SMAD4-FLAG (human) = SMAD4-FLAG (human) (UniProt Q13485); assay: co-IP; DHHC7 KO HEK293T cells transfected with WT or catalytically inactive (MUT) DHHC7-HA and the indicated SMAD2-HA and SMAD4-FLAG constructs; which protein was precipitated not given
[2] = biological target: SMAD2-HA (wild type) (human) (UniProt Q15796); assay: co-IP; HEK293T cells transfected with HA-tagged SMAD2 and FLAG-tagged STAT3 constructs, untreated or treated with TGFb (3 ng/mL) for 6 hours; anti-HA pull-down of SMAD2, blot with anti-FLAG
[3] = biological target: SMAD2-FLAG (wild type) (human) (UniProt Q15796); assay: co-IP; DHHC7 KO HEK293T cells transfected with WT or catalytically inactive (MUT) DHHC7 and the indicated SMAD2 and STAT3 constructs; anti-FLAG pull-down of STAT3 (Fig. 5C) or SMAD2 (Fig. 5D), blot with anti-HA
[4] = biological target: SMAD2-FLAG C41S/C81S mutant (human) (UniProt Q15796); assay: as above
[5] = biological target: SMAD2-FLAG (wild type) (human) (UniProt Q15796); assay: co-IP; HEK293T cells transfected with WT STAT3-HA and WT or linker-region mutant SMAD2-FLAG; anti-FLAG pull-down of SMAD2, blot with anti-HA
[6] = biological target: SMAD2-FLAG S255A mutant (human) (UniProt Q15796); assay: as above
[7] = biological target: SMAD2-FLAG (wild type) (human) (UniProt Q15796); assay: co-IP; HEK293T cells transfected with SMAD2-FLAG, untreated or treated with 25 uM ML349 for 12 hours; anti-FLAG pull-down of SMAD2, blot with anti-STAT3 (endogenous STAT3)
[8] = biological target: endogenous SMAD2 (mouse splenocytes) (mouse (endogenous in splenocytes)) (UniProt Q62432); assay: co-IP; WT and APT2 KO mouse splenocytes, without or with TGFb; anti-SMAD2 pull-down, blot with anti-STAT3 (both endogenous)
[9] = biological target: SMAD2-FLAG overexpressed in mouse splenocytes (human) (UniProt Q15796); assay: co-IP; splenocytes of WT and DHHC7 KO mice overexpressing SMAD2-FLAG; anti-FLAG pull-down of SMAD2, blot with anti-STAT3 (endogenous STAT3)

For “SMAD2-HA (wild type) (from UniProt Q15796 1-467)”, the binding [1] was “binds”.

For “SMAD2-HA C41S/C81S mutant (from UniProt Q15796 1-467)”, the binding (SMAD4-FLAG (human)) was “binds” and the binding [1] was “binds”.

In the case of “STAT3-FLAG (wild type) (from UniProt P42227 1-770)”, the binding [2] was “binds”.

“STAT3-FLAG C108S mutant (from UniProt P42227 1-770)” was tested, and the binding [2] was “binds”.

With “STAT3-HA (wild type) (from UniProt P42227 1-770)” the binding [3] was “binds”, the binding [4] was “binds” and the binding [5] was “binds”. The binding [6] was “binds”.

“endogenous STAT3 (HEK293T) (from UniProt P40763 1-770)” was tested, and the binding [7] was “binds”.

“endogenous STAT3 (mouse splenocytes) (from UniProt P42227 1-770)” was tested, and the binding [8] was “binds” and the binding [9] was “binds”.
